The other results are listed elsewhere or left out.

The chains behind the UniProt entries cited, without tags or fusion partners. Where a name states a change or a piece, a line headed by the entry shows the natural chain unless it says otherwise.
UniProt Q9BU76: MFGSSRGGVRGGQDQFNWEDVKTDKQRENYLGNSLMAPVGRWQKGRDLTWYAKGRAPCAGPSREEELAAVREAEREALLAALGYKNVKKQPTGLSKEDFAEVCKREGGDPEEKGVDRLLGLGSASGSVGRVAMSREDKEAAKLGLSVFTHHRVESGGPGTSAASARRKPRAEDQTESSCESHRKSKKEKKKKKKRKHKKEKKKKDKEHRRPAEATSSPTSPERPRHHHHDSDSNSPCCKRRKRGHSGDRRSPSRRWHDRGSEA
UniProt O96007: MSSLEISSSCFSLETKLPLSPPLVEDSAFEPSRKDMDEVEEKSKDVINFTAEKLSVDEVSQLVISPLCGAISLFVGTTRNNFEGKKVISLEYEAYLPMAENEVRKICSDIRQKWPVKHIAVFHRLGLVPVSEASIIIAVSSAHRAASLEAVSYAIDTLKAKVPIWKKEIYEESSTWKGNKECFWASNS
UniProt Q96EY8: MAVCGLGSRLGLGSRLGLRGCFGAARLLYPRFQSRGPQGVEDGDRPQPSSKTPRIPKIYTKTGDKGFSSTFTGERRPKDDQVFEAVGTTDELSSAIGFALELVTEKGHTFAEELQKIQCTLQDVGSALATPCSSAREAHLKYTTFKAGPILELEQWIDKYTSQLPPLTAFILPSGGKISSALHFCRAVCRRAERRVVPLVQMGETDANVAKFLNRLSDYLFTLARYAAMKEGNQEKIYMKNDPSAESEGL
UniProt P25325: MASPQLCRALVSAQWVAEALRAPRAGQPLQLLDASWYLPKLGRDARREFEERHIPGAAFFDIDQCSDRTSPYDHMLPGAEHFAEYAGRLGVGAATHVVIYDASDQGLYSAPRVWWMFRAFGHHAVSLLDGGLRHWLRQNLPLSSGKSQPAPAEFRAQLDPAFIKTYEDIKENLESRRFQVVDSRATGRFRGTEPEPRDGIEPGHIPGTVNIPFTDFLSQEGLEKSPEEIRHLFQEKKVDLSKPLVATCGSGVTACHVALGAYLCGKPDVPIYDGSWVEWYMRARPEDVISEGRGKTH
UniProt P34949: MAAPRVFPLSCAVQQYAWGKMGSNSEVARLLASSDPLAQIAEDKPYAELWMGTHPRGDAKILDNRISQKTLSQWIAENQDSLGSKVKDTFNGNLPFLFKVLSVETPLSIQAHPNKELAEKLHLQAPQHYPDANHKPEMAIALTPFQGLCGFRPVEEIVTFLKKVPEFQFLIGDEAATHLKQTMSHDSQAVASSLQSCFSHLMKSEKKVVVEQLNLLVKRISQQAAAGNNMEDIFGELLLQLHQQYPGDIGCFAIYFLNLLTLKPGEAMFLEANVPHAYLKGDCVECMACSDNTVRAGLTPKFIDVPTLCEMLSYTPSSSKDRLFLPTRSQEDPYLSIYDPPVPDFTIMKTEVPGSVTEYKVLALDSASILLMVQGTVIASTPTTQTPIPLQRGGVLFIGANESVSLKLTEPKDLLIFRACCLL
UniProt P14174: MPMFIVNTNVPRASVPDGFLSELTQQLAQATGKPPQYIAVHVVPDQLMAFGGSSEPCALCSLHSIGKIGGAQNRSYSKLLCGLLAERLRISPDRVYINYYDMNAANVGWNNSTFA
UniProt Q9NXC5: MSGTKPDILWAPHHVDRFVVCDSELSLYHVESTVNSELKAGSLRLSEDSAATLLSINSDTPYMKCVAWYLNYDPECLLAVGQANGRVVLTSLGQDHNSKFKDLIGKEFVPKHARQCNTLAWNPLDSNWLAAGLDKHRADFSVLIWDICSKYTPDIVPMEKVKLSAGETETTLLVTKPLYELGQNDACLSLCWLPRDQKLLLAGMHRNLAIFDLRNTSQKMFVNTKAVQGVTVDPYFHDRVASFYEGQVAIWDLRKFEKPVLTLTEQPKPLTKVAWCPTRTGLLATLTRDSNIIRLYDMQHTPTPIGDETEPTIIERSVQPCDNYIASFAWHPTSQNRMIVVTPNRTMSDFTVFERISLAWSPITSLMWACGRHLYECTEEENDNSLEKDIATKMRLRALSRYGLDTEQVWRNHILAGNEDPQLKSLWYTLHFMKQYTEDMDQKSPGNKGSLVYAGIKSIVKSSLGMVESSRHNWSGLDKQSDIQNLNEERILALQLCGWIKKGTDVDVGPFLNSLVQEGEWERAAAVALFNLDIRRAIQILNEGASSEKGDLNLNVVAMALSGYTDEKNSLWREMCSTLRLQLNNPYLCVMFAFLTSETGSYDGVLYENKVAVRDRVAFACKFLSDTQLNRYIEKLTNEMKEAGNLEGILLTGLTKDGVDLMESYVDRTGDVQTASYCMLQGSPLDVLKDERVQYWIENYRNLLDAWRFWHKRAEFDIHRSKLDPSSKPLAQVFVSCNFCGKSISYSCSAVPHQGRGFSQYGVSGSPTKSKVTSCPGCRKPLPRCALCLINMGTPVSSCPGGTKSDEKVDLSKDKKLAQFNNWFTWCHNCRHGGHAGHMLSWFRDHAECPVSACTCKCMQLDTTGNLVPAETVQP
UniProt P49959: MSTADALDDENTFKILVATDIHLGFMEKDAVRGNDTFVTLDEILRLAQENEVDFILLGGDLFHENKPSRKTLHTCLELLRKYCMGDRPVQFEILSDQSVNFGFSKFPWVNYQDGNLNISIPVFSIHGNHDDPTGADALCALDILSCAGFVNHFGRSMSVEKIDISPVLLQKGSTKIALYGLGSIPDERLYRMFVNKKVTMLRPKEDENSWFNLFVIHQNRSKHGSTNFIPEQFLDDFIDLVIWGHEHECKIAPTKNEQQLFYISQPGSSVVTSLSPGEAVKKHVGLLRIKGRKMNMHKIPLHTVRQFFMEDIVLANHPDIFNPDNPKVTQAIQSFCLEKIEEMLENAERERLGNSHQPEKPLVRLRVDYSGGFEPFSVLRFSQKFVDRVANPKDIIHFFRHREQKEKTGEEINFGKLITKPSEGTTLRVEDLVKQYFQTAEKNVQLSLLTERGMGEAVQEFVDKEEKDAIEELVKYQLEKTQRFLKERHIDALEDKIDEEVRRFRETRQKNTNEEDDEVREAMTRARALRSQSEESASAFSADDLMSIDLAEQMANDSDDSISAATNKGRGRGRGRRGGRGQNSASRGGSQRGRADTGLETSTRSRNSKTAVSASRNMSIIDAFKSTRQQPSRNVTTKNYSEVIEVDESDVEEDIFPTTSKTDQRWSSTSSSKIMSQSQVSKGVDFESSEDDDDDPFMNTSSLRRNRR
UniProt Q99549: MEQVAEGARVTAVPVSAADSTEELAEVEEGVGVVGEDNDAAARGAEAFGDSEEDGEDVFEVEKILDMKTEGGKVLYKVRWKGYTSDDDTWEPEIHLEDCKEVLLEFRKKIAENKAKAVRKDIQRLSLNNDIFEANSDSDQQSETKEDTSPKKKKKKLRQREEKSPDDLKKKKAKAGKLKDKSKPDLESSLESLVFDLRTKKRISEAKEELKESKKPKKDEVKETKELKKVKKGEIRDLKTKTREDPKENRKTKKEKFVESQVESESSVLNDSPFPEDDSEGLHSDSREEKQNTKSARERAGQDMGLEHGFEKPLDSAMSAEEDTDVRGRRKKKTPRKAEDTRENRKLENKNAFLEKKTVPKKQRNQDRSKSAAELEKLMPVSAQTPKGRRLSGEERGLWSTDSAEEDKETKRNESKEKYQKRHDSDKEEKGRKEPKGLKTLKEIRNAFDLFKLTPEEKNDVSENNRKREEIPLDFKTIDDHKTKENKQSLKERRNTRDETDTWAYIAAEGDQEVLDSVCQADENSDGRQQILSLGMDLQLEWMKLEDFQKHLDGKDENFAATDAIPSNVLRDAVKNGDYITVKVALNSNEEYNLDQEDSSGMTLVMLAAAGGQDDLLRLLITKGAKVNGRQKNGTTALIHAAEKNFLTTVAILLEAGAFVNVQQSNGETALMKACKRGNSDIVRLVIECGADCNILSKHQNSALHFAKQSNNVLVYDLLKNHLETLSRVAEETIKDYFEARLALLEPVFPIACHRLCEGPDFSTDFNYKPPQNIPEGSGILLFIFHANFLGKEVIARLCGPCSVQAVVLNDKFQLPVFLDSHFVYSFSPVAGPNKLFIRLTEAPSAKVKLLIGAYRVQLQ
UniProt A9UHW6: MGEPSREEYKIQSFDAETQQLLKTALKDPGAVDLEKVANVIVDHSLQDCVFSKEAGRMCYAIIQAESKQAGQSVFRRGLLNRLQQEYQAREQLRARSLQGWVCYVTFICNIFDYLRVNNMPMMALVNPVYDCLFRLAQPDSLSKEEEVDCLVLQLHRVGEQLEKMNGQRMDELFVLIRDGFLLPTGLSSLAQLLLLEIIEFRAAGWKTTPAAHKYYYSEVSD
UniProt Q8N4C8: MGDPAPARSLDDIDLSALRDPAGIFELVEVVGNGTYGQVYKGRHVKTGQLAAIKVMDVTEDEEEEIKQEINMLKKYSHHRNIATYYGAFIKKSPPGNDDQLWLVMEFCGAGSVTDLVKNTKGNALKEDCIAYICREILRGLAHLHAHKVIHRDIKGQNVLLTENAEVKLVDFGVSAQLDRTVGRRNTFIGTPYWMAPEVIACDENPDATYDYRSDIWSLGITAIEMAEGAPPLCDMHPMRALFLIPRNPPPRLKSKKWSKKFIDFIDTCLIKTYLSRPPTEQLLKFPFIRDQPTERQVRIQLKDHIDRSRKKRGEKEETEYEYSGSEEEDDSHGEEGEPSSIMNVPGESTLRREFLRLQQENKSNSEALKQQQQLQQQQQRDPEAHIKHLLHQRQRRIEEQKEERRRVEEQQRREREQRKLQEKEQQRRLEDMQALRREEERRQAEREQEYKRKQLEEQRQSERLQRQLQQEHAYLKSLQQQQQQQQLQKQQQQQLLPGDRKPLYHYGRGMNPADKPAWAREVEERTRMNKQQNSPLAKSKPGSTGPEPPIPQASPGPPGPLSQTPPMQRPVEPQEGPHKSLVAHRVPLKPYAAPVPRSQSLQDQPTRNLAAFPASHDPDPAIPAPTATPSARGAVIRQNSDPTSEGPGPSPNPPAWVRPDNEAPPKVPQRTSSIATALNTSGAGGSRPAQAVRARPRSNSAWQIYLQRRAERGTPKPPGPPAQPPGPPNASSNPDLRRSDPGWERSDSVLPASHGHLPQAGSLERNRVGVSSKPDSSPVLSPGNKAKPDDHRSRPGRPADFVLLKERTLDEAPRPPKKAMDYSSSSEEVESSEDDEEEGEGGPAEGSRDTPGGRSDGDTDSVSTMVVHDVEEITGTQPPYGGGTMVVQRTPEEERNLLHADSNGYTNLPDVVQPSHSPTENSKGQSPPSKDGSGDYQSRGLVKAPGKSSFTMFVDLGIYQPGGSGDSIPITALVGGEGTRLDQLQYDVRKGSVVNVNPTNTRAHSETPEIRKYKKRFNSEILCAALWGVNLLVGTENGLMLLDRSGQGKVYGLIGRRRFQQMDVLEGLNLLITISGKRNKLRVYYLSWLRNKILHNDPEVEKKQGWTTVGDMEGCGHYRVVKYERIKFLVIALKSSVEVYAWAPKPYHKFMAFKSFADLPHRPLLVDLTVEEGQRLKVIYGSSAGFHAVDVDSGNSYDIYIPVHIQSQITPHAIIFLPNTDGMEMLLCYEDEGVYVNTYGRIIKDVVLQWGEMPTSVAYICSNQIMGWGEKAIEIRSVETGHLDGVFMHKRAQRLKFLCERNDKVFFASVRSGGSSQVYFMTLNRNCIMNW

Compound in the assay: COC1=CC=C(C=C1)CN2C=CC3=C2C=C(C=C3)C(=O)NO
Kind of assay: log2 fold change, soluble protein after heating vs DMSO (PISA); higher = thermal stabilisation; K562 cells, 10 uM, 30 min; active = over 0.2 and 3.5 SD of the protein, either way, in both replicates (recomputed). An outline of the steps:
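K562 cells at 2×10^6 cells/mL were exposed to 10 μM compound for 30 min, then aliquots were heated for 3 min across 48°C-58°C, pooled, and extracted in PBS containing 0.5% NP-40 at 4°C. The supernatant after 21,000xg for 90 min was taken as soluble protein and measured by TMTpro 16plex LC-MS/MS with channel sums equalised. Thermal stability is reported relative to control samples, with values from duplicates. Fold changes are given on a log2 scale.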
Regarding MRPL41 (UniProt Q8IXM3), the log2 fold change was inactive: -0.075.

For MMTAG2 (UniProt Q9BU76), the log2 fold change is inactive: -0.055. With MOCS2 (UniProt O96007), the log2 fold change was inactive: 0.01. As for MMAB (UniProt Q96EY8), the log2 fold change was inactive: -0.003. With MPST isoform 2 (UniProt P25325) the figure was inactive: -0.021. With MRPL53 (UniProt Q96EL3) the figure was inactive: -0.093; with MPI (UniProt P34949), inactive: -0.157. As to MIF (UniProt P14174), the log2 fold change is inactive: 0.027. Take MRPL50 (UniProt Q8N5N7): the log2 fold change is inactive: -0.03. On to MRPL51 (UniProt Q4U2R6), for which the log2 fold change is inactive: -0.1.

As for MRPL42 (UniProt Q9Y6G3), the log2 fold change was inactive: 0.023.

With MRPL45 (UniProt Q9BRJ2), the log2 fold change is inactive: -0.026. Regarding MIOS (UniProt Q9NXC5), the log2 fold change was inactive: -0.031.

Regarding MRE11 isoform 3 (UniProt P49959), the log2 fold change is inactive: -0.088. In the case of MPHOSPH8 isoform 2 (UniProt Q99549), the log2 fold change was inactive: -0.002. With MRPL19 (UniProt P49406) the figure was inactive: -0.044; with MIEF1 (UniProt L0R8F8), inactive: 0.104. With MRPL28 (UniProt Q13084) the figure was inactive: -0.038. On to MIF4GD isoform 3 (UniProt A9UHW6), for which the log2 fold change is inactive: -0.018.

On to MRPL4 (UniProt Q9BYD3), for which the log2 fold change is inactive: -0.004. Take MRPL46 (UniProt Q9H2W6): the log2 fold change is inactive: -0.019. With MINK1 (UniProt Q8N4C8) the figure was inactive: -0.054; with MRPL20 (UniProt Q9BYC9), inactive: 0.019.

(Values after the supplement of paper PMC10849652.)
